1 sequence from paper PMC12185567 can be followed below.

The series deals with T1, KstR-His (Nocardia terpenica IFM 0406).
T1 sequence (looked up): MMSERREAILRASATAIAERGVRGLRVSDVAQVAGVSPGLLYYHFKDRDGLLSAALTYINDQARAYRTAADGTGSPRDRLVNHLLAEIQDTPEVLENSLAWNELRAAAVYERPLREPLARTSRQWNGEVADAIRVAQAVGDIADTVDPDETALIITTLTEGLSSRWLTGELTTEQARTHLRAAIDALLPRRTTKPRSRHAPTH
Kind of series: EMSA. Conditions: EMSA and DNase I footprinting; recombinant protein; residues 1-203; protein details: C-terminal His6; probe letters rebuilt from the primers and the genome.

Tags and fusion partners may be left off the protein sequences shown.

For the sequence “GCAGCGCGGCGACGGCTTCGACACCGTGGATCTGCAAGCGTTCGCACAGGGCCGCCGGGGCGGACGCTACTGGTTCACCCGCGGCTGGAACGTGCCCGCGACCGCGGCCTGGGCGGCCGGATCGATCTTCGGCATCCTCACCGTCGACACCACGCTCTACACCGGCCCGCTCGCGGGCATCGCGGGGGGGATCGATGTGAGCACCCTCGGCTCGGCCCTGGTCACCGCCGTGATCTACCCGATCGCGCTGCGGCTGTCGGGCGCGCCCCGGCGGGCGGCGGCTCGCCACGAGGAAACCGCTGCGCTCACGGCGCCGACGGAGTAAATTCATTACTGACTGAGTTTTCAGTTCGTCTGTACAAGGAGGTACCCCGCACCATGGCCCGATCCTTCGTCGTCG (double strand) [33470p]”, the binding result is given as “binds”.
